Publication PMC5861127, “3-pyridyl inhibitors with novel activity against Trypanosoma cruzi reveal in vitro profiles can aid prediction of putative cytochrome P450 inhibition” (Scientific Reports, 2018)
Structures can show the parent of a compound that is named as a salt.

Legend:
T. cruzi epimastigotes = experiment: 120 hour T. cruzi epimastigote assay (PrestoBlue); type: cell-based; conditions: Trypanosoma cruzi
Procedure: Additions were made with a Multidrop dispenser and compounds were added directly following parasite addition. Plates were incubated for 112 hours before the addition 10 µL of PrestoBlue® viability reagent (Thermo Fisher, USA). […] The positive control was NFX at a final concentration of 14.20 µM and 0.433% DMSO as a negative control.

HEK293 cells = experiment: HEK293 assay (resazurin); type: cell-based, human; conditions: 120 hours, 28.2 µM
Procedure: […] […] Plates were incubated for 24 hours before the addition of compounds. […] The positive control was 32.5 μM puromycin and the negative control was 0.433% DMSO, slightly different to the T. cruzi assay due to the change in volume, whilst utilising the same stock control plate. […] To determine the IC50 values of active compounds, DMSO samples were manually cherry picked from primary screening plates and diluted out in a log series of concentrations. […] […] This was only undertaken for the amastigote assay. Dilutions were prepared with a multichannel pipette ([…], Thermo Fisher Scientific, USA) in 384-well polypropylene plates (Corning, NY, USA).

T. cruzi amastigotes [1] = experiment: T. cruzi image-based assay (48 hour, intracellular amastigotes in 3T3 host cells); type: cell-based; conditions: Trypanosoma cruzi
Procedure: Control compounds used to assess the sensitivity of the T. cruzi amastigote assay were NFX, BZ and POSA. […] The assay was performed as previously described. […] One wash was undertaken by using a Multidrop plate dispenser and two washes with a Bravo liquid handling device (Agilent Technologies, USA). Five microlitres of compound were added to plates and incubated for 48 hours. Cells were then fixed and stained with Hoechst (Life Technologies, USA) and HCS CellMaskTM Green (Life Technologies, USA) and image acquisition was performed an OperaTM High Content Screening System (PerkinElmer, USA) at 20 times magnification. […] The maximum activity achievable (Emax) of compounds was determined by taking (or as close to, if concentrations in the Emax were limited) the percentage activity at the mid concentration within the plateau of activity in the concentration response curve (see Supplemental Fig. 1, example NFX). To determine the IC50 values of active compounds, DMSO samples were manually cherry picked from primary screening plates and diluted out in a log series of concentrations. […] Compound IC50 values in the TcCYP51 in vitro assay were calculated in GraFit (Erithacus software) by non-linear slope analysis. […] The significance of % clearance of parasites at compound Emax concentrations was calculated in Prism 5.0, using an unpaired student's t-test.

T. cruzi amastigotes [2] = experiment: Wash-off assay to assess parasite survival following compound removal; type: cell-based; conditions: Trypanosoma cruzi, 48 hours incubation, additional 72 hours without compound, read-out: percentage activity at the Emax, wash-off assay
Procedure: The T. cruzi assay 48 hour assay was performed. Following, plates were washed 5 times with PBS (containing Mg^2+ and Ca^2+) on a Bravo liquid handler to remove compound pressure. Plates were incubated for an additional 72 hours and wells were washed 5 times before fluorescent labels were added. Plates were imaged on an Opera confocal-based high-content system with 7 fields per well acquired, at 20 times magnification. As considerable parasite egress was observed, only Emax concentrations were used for analysis. Four experimental replicates were undertaken.

T. cruzi amastigotes [3] = experiment: 96 hour image-based assay; type: cell-based; conditions: Trypanosoma cruzi; difference 96 hours minus 48 hours; read-out: increase in activity at the Emax from 48 to 96 hours incubation
Procedure: The assay format was the same as the 48 hour assay, although plates were incubated for 96 hours. […] Two extra wash steps were included to remove as many extracellular parasites as possible to reduce impact on determination of intracellular parasites. Due to the level of egress in negative control wells, the number of infected cells was estimated as previously. Two experimental replicates were undertaken.

T. cruzi amastigotes [4] = experiment: 24 hour image-based assay; type: cell-based; conditions: Trypanosoma cruzi, plateau/Emax concentrations, read-out: % activity at the Emax, 24 hours incubation
Procedure: Compounds were added to assay plates as described for the 48 hour assay, although incubation time was decreased to 24 hours. […] Two experimental replicates were performed.

- IC50 (T. cruzi epimastigotes): 6.4 ± 0.0217 µM
- % activity against HEK293 cells at highest screening dose (HEK293 cells): 99.5%
- % activity against HEK293 cells at highest screening dose (HEK293 cells; listed as Clemastine fumarate): 99.5% at 28.2 µM^1
SMILES: CN1CCC[C@@H]1CCO[C@](C)(c1ccccc1)c1ccc(Cl)cc1 [CF, Clemastine fumarate]
- Emax (T. cruzi amastigotes [1]; 48 h, DMSO stocks (CF from solid sample), relative to nifurtimox control): 96.8 ± 1.26%
- IC50 (T. cruzi amastigotes [1]; NIH3T3, 48 h, intracellular amastigotes in 3T3 cells, retested from DMSO stocks (CF from solid sample, temporal experiments)): 0.57 ± 0.0396 µM
- Emax (T. cruzi amastigotes [2]): 96.8%
- Emax (T. cruzi amastigotes [3]): 4.3%
- Emax (T. cruzi amastigotes [4]): 75.5%
